# According to PubChem BioAssay AID1671190 (National Center for Advancing Translational Sciences (NCATS), 2021):
# Sequences of proteins named here, by UniProt entry; tags and fusion partners are left off.
# UniProt P18054, whole entry, looked up: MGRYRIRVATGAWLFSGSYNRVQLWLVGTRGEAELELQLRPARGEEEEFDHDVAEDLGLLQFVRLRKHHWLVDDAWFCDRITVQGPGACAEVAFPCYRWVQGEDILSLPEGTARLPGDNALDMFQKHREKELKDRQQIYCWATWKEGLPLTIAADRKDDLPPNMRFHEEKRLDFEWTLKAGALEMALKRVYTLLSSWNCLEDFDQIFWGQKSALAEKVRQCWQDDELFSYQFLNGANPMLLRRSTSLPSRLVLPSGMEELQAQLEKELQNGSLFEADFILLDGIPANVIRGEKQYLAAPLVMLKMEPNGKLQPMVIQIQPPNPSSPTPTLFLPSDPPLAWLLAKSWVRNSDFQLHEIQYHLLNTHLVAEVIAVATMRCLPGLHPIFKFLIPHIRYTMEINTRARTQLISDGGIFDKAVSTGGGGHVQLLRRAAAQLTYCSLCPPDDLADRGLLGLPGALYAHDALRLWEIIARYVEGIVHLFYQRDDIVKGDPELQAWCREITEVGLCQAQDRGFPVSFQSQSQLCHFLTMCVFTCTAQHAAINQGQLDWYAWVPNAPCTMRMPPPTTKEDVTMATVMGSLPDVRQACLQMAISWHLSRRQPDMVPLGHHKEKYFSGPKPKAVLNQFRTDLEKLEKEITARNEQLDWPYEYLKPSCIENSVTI
# The campaign covered roughly 580,000 compounds. About 6,100 (1.1%) were called active. Inconclusive results, whose numbers are uncertain, are shown with a selection of clear calls. Calls come from the whole dose curve; as a rule, active = well fitted inhibition curve with a large enough effect; inconclusive = small, poorly fitted or top-dose-only effect, or another doubt; inactive = no such curve, though single readings can be large or run the other way. A potency beside an inconclusive call is a rough fit, not a confirmed value.
# Target: Polyunsaturated fatty acid lipoxygenase ALOX12 (Homo sapiens) (UniProt P18054)
# Assay: Primary qHTS assay for inhibitors of human arachidonate 12S-lipoxygenase (ALOX12): Round 2
# Conditions: purified 12hLO, xylenol orange hydroperoxide absorbance; activity change, negative = inhibition: at 108 µM (top of the series) unless noted
# In short: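 Hydroperoxide product was detected by ferrous iron/xylenol orange as the 573 to 405 nm absorbance ratio. Arachidonic acid at 40 uM (final) was turned over for 30 min at room temperature by 150 nM human 12hLO, pH 7.0 Hepes buffer, after 15 min compound preincubation.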
# % is set by controls: 0 for no effect and ±100 for the full control effect; potency is the fitted concentration of half-maximal effect.
SMILES,Potency,"activity change, negative = inhibition"
Cc1ccc(-c2nn(-c3cc(N4CCOCC4)ccc3[N+](=O)[O-])c(=O)c3ccccc23)cc1,"inconclusive: 35.5 µM [inhibitor, single point]",–
O=C(CCc1ncc(-c2ccccc2)o1)Nc1ccc2ccccc2c1,"inconclusive: 63.1 µM [inhibitor, partial curve, poor fit]",–
NC1=NC[C@@H](Cc2ccc(O)cc2)N1CC1CCCCC1,"inconclusive: 70.8 µM [inhibitor, single point]",–
CCC(CNC(=O)Cn1cnc2c1c(=O)n(C)c(=O)n2C)c1ccccc1 (centres undefined),"inconclusive: 50.1 µM [inhibitor, partial curve, poor fit]",–
CCn1c(SCC(=O)Nc2ccc(C)cc2)nc2nc3c(cc2c1=O)COC(C)(C)C3,"inconclusive: 50.1 µM [inhibitor, partial curve, poor fit]",–
O=C(NC1CCCc2ccccc21)c1ccccn1 (centres undefined),–,inactive: -19.1%
CC(C)C[C@@H](CNCC(=O)[C@H](Cc1c[nH]c2ccccc12)NC(=O)c1[nH]cnc1C(=O)N[C@@H](C)CN)NC(=O)c1nc[nH]c1C(=O)N[C@@H](CC(=O)O)C(=O)O,–,inactive: -11.3%
O=C(COc1nsnc1N1CCOCC1)Nc1ccc(Cl)cc1,–,inactive: -4.7%
CCOc1ccccc1/C=N/n1c(C2CCCCC2)n[nH]c1=S,–,inactive: 0%
Cc1ccc(S(=O)(=O)Nc2ccccc2O)cc1,–,inactive: -22.4%
COc1ccc(-n2cnnc2SCC(=O)Nc2ccccc2F)cc1,"inconclusive: 112 µM [inhibitor, single point]",–
COc1ccc(NC2CCCN(C(=O)CN3C(=O)c4ccccc4C3=O)C2)cc1OC (centres undefined),"inconclusive: 44.7 µM [inhibitor, partial curve, poor fit]",–
O=C(/C=C/c1cccc(Cl)c1)N1CCC(Cc2ccccc2)CC1,"inconclusive: 89.1 µM [inhibitor, partial curve, poor fit]",–
CCOc1ccccc1-c1nc(-c2ccc(C)nc2OC)no1,–,inactive: -20.1%
CCC(C)NCCOCCOc1ccc(Cl)cc1Br (centres undefined),"inconclusive: 0.891 µM [inhibitor, full curve, poor fit]",–
O=c1c(-c2ccco2)nc2ccccc2n1C(c1ccccn1)c1nc2ccccc2[nH]1 (centres undefined),"inconclusive: 6.31 µM [inhibitor, full curve, poor fit]",–
CNC(=O)[C@@H](c1ccccc1F)N1CCC[C@H]1C(=O)NC1CC1,active: 25.1 µM,–
Cc1cc(C)c(C(=O)C(C)OC(=O)c2ccc(CO)cc2)cc1C (centres undefined),"inconclusive: 50.1 µM [inhibitor, partial curve, poor fit]",–
CC1(C)Cc2ccccc2C2CC(O)C(=O)N21 (centres undefined),"inconclusive: 14.1 µM [inhibitor, full curve]",–
CCCCc1c(C)c2ccc(OCC(C)=O)cc2oc1=O,–,inactive: 0%
c1ccc(N2CCN(c3ccc4nncn4n3)CC2)nc1,"inconclusive: 0.447 µM [inhibitor, full curve, poor fit]",–
N#Cc1cccc(C(c2nnnn2C2CCCC2)N2CCCCCC2)c1 (centres undefined),"inconclusive: 50.1 µM [inhibitor, partial curve, poor fit]",–
O=C(O)c1ccc(S(=O)(=O)Nc2ccc(O)c(Sc3nc4ccccc4s3)c2)cc1,"inconclusive: 50.1 µM [inhibitor, partial curve, poor fit]",–

SMILES,Potency,"activity change, negative = inhibition"
O=[N+]([O-])c1ccc2[nH]c(O)c(N=NC(=S)NCC3CCCO3)c2c1 (centres undefined),–,inactive: -0.329%
Cc1ccc(C(=O)c2sc(Nc3cccc(Cl)c3C)nc2N)cc1,active: 28.2 µM,–
Cc1ccc(NC(=O)c2cc(-c3ccc(C)o3)nc3ccccc23)nc1,"inconclusive: 2.82 µM [inhibitor, full curve, poor fit]",–
COc1cccc(NC(=O)C(=O)NCCc2sc(-c3ccc(Cl)cc3)nc2C)c1,"inconclusive: 126 µM [inhibitor, single point]",–
O=Cc1cccn1-c1ccc(Cl)cc1,–,inactive: -8.19%
CCOc1ccc(-n2nnc(C(=O)NCc3ccco3)c2N)cc1,"inconclusive: 1 µM [inhibitor, full curve, poor fit]",–
O=C(CSC1=NCCN1)Nc1cccc(C(F)(F)F)c1,–,inactive: -0.892%
COCCN1C(=O)c2oc3cc(C)cc(C)c3c(=O)c2C1c1cccc(O)c1 (centres undefined),"inconclusive: 50.1 µM [inhibitor, partial curve, poor fit]",–
COc1ccc(NC(=O)c2nc3cc(C)c(C)cc3nc2N2CCOCC2)cc1,–,inactive: 9.09%
OC(CN1c2ccccc2Sc2ccccc21)Cn1nnc2ccccc21 (centres undefined),–,inactive: 18.9%
COc1cc(C2NC(=S)NC(c3ccccc3)=C2C(C)=O)cc(Cl)c1OCC(=O)O (centres undefined),"inconclusive: 50.1 µM [inhibitor, partial curve, poor fit]",–
Cc1nc(NC(=O)CSc2nccn2C)sc1C(=O)N(C)C,active: 17.8 µM,–
Nc1oc2ccccc2c(=O)c1-c1cccc2ccccc12,–,inactive: 7.17%
CC(=O)OCC1=C(C(=O)O)N2C(=O)C(NC(=O)c3ccc(F)cc3)C2SC1 (centres undefined),"inconclusive: 17.8 µM [inhibitor, partial curve]",–
CCOC(=O)CSC1=C(C#N)C(=O)NC(c2ccc(OC)c(OC)c2)S1 (centres undefined),"inconclusive: 35.5 µM [inhibitor, partial curve, poor fit]",–
Cn1c(NCc2ccccc2)nc2cc(-c3ccccc3)sc2c1=O,–,inactive: -3.29%
FC(F)(F)c1ccccc1-n1c(-c2cnccn2)n[nH]c1=S,"inconclusive: 70.8 µM [inhibitor, partial curve, poor fit]",–
Cc1ccc(N2CC(C(=O)NCCS(=O)(=O)N3CCN(c4ccccc4)CC3)CC2=O)cc1 (centres undefined),"inconclusive: 100 µM [inhibitor, partial curve, poor fit]",–
CCn1cc(CN2CCC(N3CC(OCC4CC4)C34CCCCC4)CC2)cn1 (centres undefined),–,inactive: 34.7%
Cc1ccc(S(=O)(=O)N(C)C)cc1-n1c(SCC(=O)N(C)C)nc2ccccc2c1=O,–,inactive: -9.2%
O=C(C1CCN(c2nc(-c3ccccc3)nc3c2CCC3)CC1)N1C[C@H]2CC[C@H]1C2,–,inactive: 28.3%
CC(C)c1ccc(O)c(NC(=S)NC(=O)c2cccnc2)c1,–,inactive: -11.4%
N#Cc1cccc(-c2nc(Nc3ccccc3)c3ccccc3n2)c1,"inconclusive: 6.31 µM [inhibitor, full curve, poor fit]",–

# Part of the list above in order of SMILES length, high to low:
SMILES,Potency,"activity change, negative = inhibition"
Cc1ccc(S(=O)(=O)N(C)C)cc1-n1c(SCC(=O)N(C)C)nc2ccccc2c1=O,–,inactive: -9.2%
COc1cccc(NC(=O)C(=O)NCCc2sc(-c3ccc(Cl)cc3)nc2C)c1,"inconclusive: 126 µM [inhibitor, single point]",–
CCCCc1c(C)c2ccc(OCC(C)=O)cc2oc1=O,–,inactive: 0%

# (more compounds)

SMILES,Potency,"activity change, negative = inhibition"
Cc1ccc(-n2nc3c(N4CCC(C(=O)N5CCN(C)CC5)CC4)nnc(C)c3c2C)cc1,–,inactive: 3.94%
Nc1cccc(OCC(F)(F)F)c1,"inconclusive: 22.4 µM [inhibitor, full curve, poor fit]",–
C=CCNc1nc(-c2c(C(=O)OC)c(C)n(C3CC3)c2C)cs1,"inconclusive: 31.6 µM [inhibitor, single point]",–
O=C(NCCCN1CCOCC1)c1cn(-c2ccccc2)nc1-c1ccc(Br)cc1,"inconclusive: 100 µM [inhibitor, single point]",–
Cc1ccc(S(=O)(=O)c2cn(Cc3cccc(F)c3)c3cc(N4CCCC4)c(F)cc3c2=O)cc1,–,inactive: -6.13%
CCc1ccccc1NC(=O)CNC(=O)c1ccc(OCc2cn3ccccc3n2)cc1,–,inactive: -11.3%
COc1ccc(Cl)cc1Nc1nc(N)c(C(=O)c2ccc(C)cc2C)s1,"inconclusive: 5.62 µM [inhibitor, full curve, poor fit]",–
CCC1(c2ccccc2)NC(=O)N(CC(=O)Nc2ccc(S(=O)(=O)NC3=NCCCCC3)cc2)C1=O (centres undefined),"inconclusive: 50.1 µM [inhibitor, partial curve, poor fit]",–
CC1(C(=O)NS(=O)(=O)c2cccc(F)c2)CCN1C(=O)Cc1ccccc1 (centres undefined),"inconclusive: 35.5 µM [inhibitor, partial curve, poor fit]",–
CCCCC1CC(CSC(=N)N)OC1=O (centres undefined),"inconclusive: 89.1 µM [inhibitor, partial curve, poor fit]",–
COCCCNc1nc2ccccc2nc1NS(=O)(=O)c1ccc(F)cc1,"inconclusive: 31.6 µM [inhibitor, single point]",–
CCCOc1ccccc1-c1nc(SCC(=O)c2ccccc2)n[nH]1,"inconclusive: 100 µM [inhibitor, partial curve, poor fit]",–
N#Cc1ccc(-c2nc3ccc(Cl)cn3c2Cc2cccc(Cl)c2)cc1,active: 35.5 µM,–
CCCCC(=O)N(C)c1c(CC)nc2c(OCC(=O)N3CCOCC3)cccn12,"inconclusive: 50.1 µM [inhibitor, partial curve, poor fit]",–
O=C(NC1CCCc2ccccc21)c1ccc2ccccc2n1 (centres undefined),"inconclusive: 20 µM [inhibitor, partial curve]",–
Cc1ccc(OC(=S)Nc2ccc(O)cc2)cc1,"inconclusive: 44.7 µM [inhibitor, partial curve, poor fit]",–
Cc1ccc(NC(=O)CC2C(=O)OCCN2Cc2ccccc2)cc1Cl (centres undefined),"inconclusive: 79.4 µM [inhibitor, single point]",–
Cc1ccc(-n2c(C3CCN(C(=O)c4cc(F)ccc4F)CC3)n[nH]c2=O)cc1,"inconclusive: 35.5 µM [inhibitor, partial curve]",–
CN(CC1CCOC1)C(=O)Nc1cccc(Cl)c1 (centres undefined),–,inactive: 1.64%
CCN1CCN(CCCNC(=O)c2ccc3nc(Cc4ccc(OC)cc4)oc3c2)CC1,"inconclusive: 100 µM [inhibitor, partial curve, poor fit]",–
CCCNC(=O)NNC(=O)c1ccc(F)cc1,–,inactive: 7.93%
COC(=O)[C@@]12CCCN1[C@H](c1ccc(-c3ccc(OC)cc3)cc1)[C@@H]1C(=O)N(C)C(=O)[C@@H]12,–,inactive: -14.9%
COC1C=CC=C(C)C(=O)NC2=CC(=O)C(N)=C(CC(C)CC(OC)C(O)C(C)C=C(C)C1OC(N)=O)C2=O (centres undefined),–,inactive: -28.7%
